According to patent publication US20210228675A1, “HYPERTROPHIC SCAR INHIBITING COMPOSITION” (FUKUOKA UNIVERSITY, priority 2018, published 2021):
At least one peptide structure holds a part that was inferred or is arguable (an end, a ring closure or a residue). Non-standard residues stand in square brackets, D forms with d. Residues, ends and D or L forms follow the SMILES beside them. Hyp = O=C(O)[C@@H]1C[C@@H](O)CN1

Assays:
[1] = tested on: granulation tissue in wound site of abdominal wall circular incision model (Model-2) mice; assay: Formation of granulation tissue by administration of various polypeptides in Model-2 mice; assay type: in vivo, C57 BL/6N mice; conditions: Day 7; i.p. once a day for 7 days, doses of Table 7; control sparse; FIG. 9
[2] = tested on: wound site of abdominal wall circular incision model (Model-2) mice; assay: Evaluation of contraction of wound site in abdominal wall circular incision model (Model-2) mice; assay type: in vivo, C57 BL/6N mice; conditions: Day 10
[3] = tested on: wound site of abdominal wall midline incision model (Model-1) mice; assay: Inhibition test of hypertrophic scar formation in abdominal wall midline incision model (Model-1) mice; assay type: in vivo, C57 BL/6N mice; conditions: for DISTRIBUTION DENSITY OF COLLAGEN (mature collagen area per unit area in granulation tissue), MEAN: Picro-Sirius Red
[4] = tested on: 3T3-L1 skin fibroblasts derived from a murine fetus; assay: Degree of collagen gel contraction, collagen gel embedded culture of fibroblasts; assay type: cell-based; conditions: fibroblasts present, 0 mM 359.7 ± 24.8

Compound: O=C(O)[C@@H]1C[C@@H](O)CN1C(=O)[C@@H]1CCCN1 [Pro-Hyp] (H-Pro-[Hyp]-OH; N-terminus and C-terminus assumed)
- collagen fibers in granulation tissue, Masson trichrome stain [1]: the collagen fibers were dense and matured as the tissue
- AREA OF WOUND SITE, MEAN ([2]; 500 nmol/200 μL once a day for 7 days, Day 0 31.7, control 9.62, p < 0.05): 4.43 mm^2
- wound site viewed from the abdominal wall side, in comparison with the control group ([2]; FIG. 8): The wound site was reduced with many of them being flat and the healing had been progressing
- granulation tissue in the wound site, Masson trichrome stain, versus control group ([3]; 500 nmol/200 μL i.p. once a day for 7 days, FIG. 5): the granulation tissue is smaller
- DISTANCE BETWEEN THE STUMPED RECTI ABDOMINIS, MEAN ([3]; Day 5, 500 nmol/200 μL i.p. once a day for 7 days, control 695.5): 532.8 μm
- AREA OF GRANULATION TISSUE, MEAN ([3]; Day 5, 500 nmol/200 μL i.p. once a day for 7 days, control 760020.2): 518871.0 μm^2
- DISTRIBUTION DENSITY OF COLLAGEN (mature collagen area per unit area in granulation tissue), MEAN ([3]; Day 5, control 6.8): 3.2%
- DISTANCE BETWEEN THE STUMPED RECTI ABDOMINIS, MEAN ([3]; Day 7, 500 nmol/200 μL i.p. once a day for 7 days, control 812.3, p < 0.01): 358.3 μm
- AREA OF GRANULATION TISSUE, MEAN ([3]; Day 7, 500 nmol/200 μL i.p. once a day for 7 days, control 1290757.0, p < 0.01): 486177.2 μm^2
- DISTRIBUTION DENSITY OF COLLAGEN (mature collagen area per unit area in granulation tissue), MEAN ([3]; Day 7, control 8.2): 21.2%
- DISTANCE BETWEEN THE STUMPED RECTI ABDOMINIS, MEAN ([3]; Day 10, 500 nmol/200 μL i.p. once a day for 7 days, control 707.5, p < 0.05): 233.5 μm
- AREA OF GRANULATION TISSUE, MEAN ([3]; Day 10, 500 nmol/200 μL i.p. once a day for 7 days, control 888388.4, p < 0.05): 312793.2 μm^2
- appearance of tissue repair part viewed from the abdominal wall side ([3]; Day 10, FIG. 7): appeared in a smooth straight line and exhibited healing with less granulation tissue
- DISTRIBUTION DENSITY OF COLLAGEN (mature collagen area per unit area in granulation tissue), MEAN ([3]; Day 10, control 8.9, p < 0.05): 26.5%
- MEAN OF CONTRACTION DISTANCE ± STANDARD ERROR ([4]; Pro-Hyp 0.1 mM): (525.3 ± 56.0) μm
- MEAN OF CONTRACTION DISTANCE ± STANDARD ERROR ([4]; Pro-Hyp 1 mM): (582.1 ± 306.1) μm
- MEAN OF CONTRACTION DISTANCE ± STANDARD ERROR ([4]; Pro-Hyp 10 mM): (1078.9 ± 5.6) μm
